PubChem BioAssay AID1259405, NCATS | 2018
The deposit covers about 50,000 reagents; shown is an unselected part. Over the whole deposit, about 4,000 (8%) were called active. 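Mouse siRNA library applied to hamster cells; one well for each siRNA.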 Entries without a mark were called inactive. The numbers tell different reagents against one gene apart. Further read-outs or replicates are left out here. Reagent sequences are not shown.

Screen: 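Knock-downs that lift recombinant protein yield in hamster ovary cells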 (primary screen)
System: Chinese hamster CHO-K1 ovary cells with stable secreted eGFP expression
Reagent: single siRNA against mouse genes, 0.8 pmol siRNA per well (2 µl of 400 nM stock)
Time to read-out: 3 days
Detection: 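Per-well intracellular GFP measured by laser scanning cytometry, plus viability from ATP luminescence, each relative to plate median of non-targeting control wells, in %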
Reading the numbers: GFP, % of control: higher = more GFP per well, higher productivity
Call rule: 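Called active when intracellular GFP, relative to negative control, is at or above 120%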

GFP, % of control, by target gene and reagent
Ptpn13 (protein tyrosine phosphatase, non-receptor type 13): #1 94.8; #2 65.5; #3 85.8
Fbxw16 (F-box and WD-40 domain protein 16): #1 87.9; #2 92.3; #3 129 (active)
Prokr2 (prokineticin receptor 2): #1 66.9; #2 58; #3 70.4
Zfp459 (zinc finger protein 459): #1 54.2; #2 64; #3 66.1
Ppt2 (palmitoyl-protein thioesterase 2): #1 89.1; #2 54.1; #3 49.8
Spdl1 (spindle apparatus coiled-coil protein 1): #1 53.4; #2 44.9; #3 75.4
Yars2 (tyrosyl-tRNA synthetase 2 (mitochondrial)): #1 90.1; #2 129 (active); #3 43.8

Already shown: 6 of the entries above.
GFP, % of control, by target gene and reagent
Fbxw16 (F-box and WD-40 domain protein 16): #3 129 (active)
Prokr2 (prokineticin receptor 2): #1 66.9; #2 58; #3 70.4
Zfp459 (zinc finger protein 459): #1 54.2; #2 64

Additional reagents follow:
GFP, % of control, by target gene and reagent
Kat5 (K(lysine) acetyltransferase 5): #1 74.3; #2 63.6; #3 77.4
Gprasp3: #1 36.6; #2 47.6; #3 68.8
Pi4kb (phosphatidylinositol 4-kinase beta): #1 56.5
Ccdc88c (coiled-coil domain containing 88C): #1 88; #2 49.5; #3 86
Lpo (lactoperoxidase): #1 67; #2 109; #3 102
Larp7 (La ribonucleoprotein 7, transcriptional regulator): #1 88.6; #2 71.9; #3 154 (active); #4 103; #5 80; #6 81.3
Rxfp2 (relaxin/insulin-like family peptide receptor 2): #1 64.8; #2 95.6; #3 78.2
Deaf1 (DEAF1, transcription factor): #1 102; #2 113
Liph (lipase H): #1 77.1; #2 94.5; #3 67.2
Il9 (interleukin 9): #1 84.3; #2 74.3; #3 98.7
Vmn1r232 (vomeronasal 1 receptor 232): #1 209 (active); #2 65.7; #3 104
Ints10 (integrator complex subunit 10): #1 75.3; #2 76.1; #3 82.6
